The record followed here is publication PMC6939906, “Leucine zipper transcription factor-like 1 binds adaptor protein complex-1 and 2 and participates in trafficking of transferrin receptor 1” (PLoS ONE, 2020).

The assay has as its target T1, LZTFL1-Myc-Flag (human leucine zipper transcription factor-like 1) expressed in Jurkat E6.1 cells (human) (UniProt Q9NQ48).
T1 sequence: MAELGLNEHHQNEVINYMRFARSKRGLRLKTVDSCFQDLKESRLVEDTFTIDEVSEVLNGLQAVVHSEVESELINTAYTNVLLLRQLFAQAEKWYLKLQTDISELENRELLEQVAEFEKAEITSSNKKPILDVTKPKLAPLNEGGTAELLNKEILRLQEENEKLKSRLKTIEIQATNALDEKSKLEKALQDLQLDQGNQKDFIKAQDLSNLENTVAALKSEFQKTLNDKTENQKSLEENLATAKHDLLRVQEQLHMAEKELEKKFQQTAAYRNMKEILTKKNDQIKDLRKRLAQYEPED
Briefly: affinity purification with mass spectrometry; LZTFL1-Myc-Flag from transfected Jurkat E6.1 cells precipitated on anti-FLAG M2 magnetic beads overnight at 4°C, eluted with 3X FLAG peptide, SDS-PAGE, silver stain, in-gel digestion, LC-MS/MS.

Results are given in words; binding and its absence hold for the method and conditions named. Binding seen in cells or lysates may run through a third protein. Here binding means that the protein was enriched with, or labelled near, the bait; the list need not be complete. Tags and fused reporters may be left off the sequences shown.

B1: β1 subunit of AP-1, endogenous in Jurkat E6.1 cells (protein, UniProt Q10567 1-949)
chain: MTDSKYFTTTKKGEIFELKAELNSDKKEKKKEAVKKVIASMTVGKDVSALFPDVVNCMQTDNLELKKLVYLYLMNYAKSQPDMAIMAVNTFVKDCEDPNPLIRALAVRTMGCIRVDKITEYLCEPLRKCLKDEDPYVRKTAAVCVAKLHDINAQLVEDQGFLDTLKDLISDSNPMVVANAVAALSEIAESHPSSNLLDLNPQSINKLLTALNECTEWGQIFILDCLANYMPKDDREAQSICERVTPRLSHANSAVVLSAVKVLMKFMEMLSKDLDYYGTLLKKLAPPLVTLLSAEPELQYVALRNINLIVQKRPEILKHEMKVFFVKYNDPIYVKLEKLDIMIRLASQANIAQVLAELKEYATEVDVDFVRKAVRAIGRCAIKVEQSAERCVSTLLDLIQTKVNYVVQEAIVVIKDIFRKYPNKYESVIATLCENLDSLDEPEARAAMIWIVGEYAERIDNADELLESFLEGFHDESTQVQLQLLTAIVKLFLKKPTETQELVQQVLSLATQDSDNPDLRDRGYIYWRLLSTDPVAAKEVVLAEKPLISEETDLIEPTLLDELICYIGTLASVYHKPPSAFVEGGRGVVHKSLPPRTASSESAESPETAPTGAPPGEQPDVIPAQGDLLGDLLNLDLGPPVSGPPLATSSVQMGAVDLLGGGLDSLMGDEPEGIGGTNFVAPPTAAVPANLGAPIGSGLSDLFDLTSGVGTLSGSYVAPKAVWLPAMKAKGLEISGTFTRQVGSISMDLQLTNKALQVMTDFAIQFNRNSFGLAPAAPLQVHAPLSPNQTVEISLPLSTVGSVMKMEPLNNLQVAVKNNIDVFYFSTLYPLHILFVEDGKMDRQMFLATWKDIPNENEAQFQIRDCPLNAEAASSKLQSSNIFTVAKRNVEGQDMLYQSLKLTNGIWVLAELRIQPGNPSCTDLELSLKCRAPEVSQHVYQAYETILKN
On to B1, for which the binding entry is reported as “binds”.
